Measured data: PubChem BioAssay AID1159578 (Peter MacCallum Cancer Centre, 2015)
The whole screen tested about 18,000 reagents; shown is an unselected part. About 1,030 of them (5.7%) count as active. 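Inactive calls also include pools with fewer than 3300 nuclei, whose migration was not assessed.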 The raw values are shown without normalisation. Further read-outs or replicates are left out here.

Purpose: 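Knock-downs that alter how fast lymphatic endothelial cells migrate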 (primary screen)
Cells: human lymphatic endothelial cells
Reagents: siRNA pool against human genes, 40 nM
Duration: 48 h after transfection
Measurement: 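Cells stained with dye and imaged after a scratch; covered wound area and nuclei counted, duplicates averaged, migration set against mock wells and turned into a robust z-score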
Direction: migration robust z-score: higher = faster migration into the scratch; nuclei per well: higher = more cells in the well
Rule for the call: 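Migration changed when robust z exceeds 2 or falls below -2 and mean nuclei number is at least 3300; otherwise not called changed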
Calls: active = migration changed; inactive = no migration change, or too few cells

With COA1 (cytochrome c oxidase assembly factor 1), what was measured?
migration robust z-score: -1.88; migration class with cell-count check: migration z between -2 and 2; enough cells; nuclei per well, duplicate mean: 6261; activity call: inactive

With MYO5A (myosin VA), what does the deposit list?
migration robust z-score: 0.52; migration class with cell-count check: migration z between -2 and 2; enough cells; nuclei per well, duplicate mean: 6013; activity call: inactive

With SEC16A (SEC16 homolog A, endoplasmic reticulum export factor), what does the deposit list?
migration robust z-score: 0.96; migration class with cell-count check: migration z between -2 and 2; enough cells; nuclei per well, duplicate mean: 5302; activity call: inactive

What is on record for PDCD6 (programmed cell death 6)?
migration robust z-score: -1.19; migration class with cell-count check: migration z between -2 and 2; enough cells; nuclei per well, duplicate mean: 7208; activity call: inactive

For ALOX12B (arachidonate 12-lipoxygenase, 12R type), what does the deposit list?
migration robust z-score: 0.1; migration class with cell-count check: migration z between -2 and 2; enough cells; nuclei per well, duplicate mean: 5208; activity call: inactive

How did the screen score CD48 (CD48 molecule)?
migration robust z-score: 1.85; migration class with cell-count check: migration z between -2 and 2; enough cells; nuclei per well, duplicate mean: 6608; activity call: inactive

What is on record for ACAP3 (ArfGAP with coiled-coil, ankyrin repeat and PH domains 3)?
migration robust z-score: -1.39; migration class with cell-count check: migration z between -2 and 2; enough cells; nuclei per well, duplicate mean: 4952; activity call: inactive

Which result is listed for H3-3A (H3.3 histone A)?
migration robust z-score: -0.2; migration class with cell-count check: migration z between -2 and 2; enough cells; nuclei per well, duplicate mean: 5786; activity call: inactive

What did the screen give for SYNPO2L (synaptopodin 2 like)?
migration robust z-score: 0.99; migration class with cell-count check: migration z between -2 and 2; enough cells; nuclei per well, duplicate mean: 5812; activity call: inactive

Which result is listed for LOXL2 (lysyl oxidase like 2)?
migration robust z-score: -0.5; migration class with cell-count check: migration z between -2 and 2; enough cells; nuclei per well, duplicate mean: 4348; activity call: inactive

How did the screen score LONRF1 (LON peptidase N-terminal domain and ring finger 1)?
migration robust z-score: 1.77; migration class with cell-count check: migration z between -2 and 2; enough cells; nuclei per well, duplicate mean: 5046; activity call: inactive

What did the screen give for HDGF (heparin binding growth factor)?
migration robust z-score: -1.17; migration class with cell-count check: migration z between -2 and 2; enough cells; nuclei per well, duplicate mean: 4391; activity call: inactive

With COL4A1 (collagen type IV alpha 1 chain), what does the deposit list?
migration robust z-score: -0.48; migration class with cell-count check: migration z between -2 and 2; enough cells; nuclei per well, duplicate mean: 5770; activity call: inactive

What is on record for TRRAP (transformation/transcription domain associated protein)?
migration robust z-score: 0.57; migration class with cell-count check: migration z between -2 and 2; enough cells; nuclei per well, duplicate mean: 4576; activity call: inactive

With OR10T2 (olfactory receptor family 10 subfamily T member 2), what does the deposit list?
migration robust z-score: -1.21; migration class with cell-count check: migration z between -2 and 2; enough cells; nuclei per well, duplicate mean: 5818; activity call: inactive

For SLC24A3, what does the deposit list?
migration robust z-score: -0.18; migration class with cell-count check: migration z between -2 and 2; enough cells; nuclei per well, duplicate mean: 5920; activity call: inactive

What did the screen give for HDHD3 (haloacid dehalogenase like hydrolase domain containing 3)?
migration robust z-score: -0.26; migration class with cell-count check: migration z between -2 and 2; enough cells; nuclei per well, duplicate mean: 6077; activity call: inactive

What is on record for ADGRF5 (adhesion G protein-coupled receptor F5)?
migration robust z-score: 1.06; migration class with cell-count check: migration z between -2 and 2; enough cells; nuclei per well, duplicate mean: 5654; activity call: inactive

Which result is listed for HEY1?
migration robust z-score: -0.39; migration class with cell-count check: migration z between -2 and 2; enough cells; nuclei per well, duplicate mean: 4547; activity call: inactive

With IRF6 (interferon regulatory factor 6), how do the results read?
migration robust z-score: 0.57; migration class with cell-count check: migration z between -2 and 2; enough cells; nuclei per well, duplicate mean: 5268; activity call: inactive

For S100A4 (S100 calcium binding protein A4), what was measured?
migration robust z-score: -0.3; migration class with cell-count check: migration z between -2 and 2; enough cells; nuclei per well, duplicate mean: 4845; activity call: inactive

Part of the list above, reformatted.
Target gene,migration robust z-score,migration class with cell-count check,"nuclei per well, duplicate mean",activity call
HEY1,-0.39,migration z between -2 and 2; enough cells,4547,inactive
IRF6 (interferon regulatory factor 6),0.57,migration z between -2 and 2; enough cells,5268,inactive
S100A4 (S100 calcium binding protein A4),-0.3,migration z between -2 and 2; enough cells,4845,inactive
